Data as given in the supplement of paper PMC8104966.
The other results are listed elsewhere or left out. Repeats in this data set agree poorly, so a single value says little.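 U2OS cells expressing ACE2 were combined with U2OS cells expressing full-length spike, and imaging quantified fusion as the fraction of nuclei displaying both cell types' fluorescent markers. Non-toxic compounds with a fusion z-score under -3, i.e., over three standard deviations below the plate's DMSO wells, are called inhibitory hits.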

What follows are molecules tested on U2OS ACE2 x SARS-CoV-2 spike co-culture (assay: cell-cell fusion (fraction fused) z-score vs plate DMSO control; higher = more fusion). Conditions: 30 µM; 5 h; toxicity class: non-toxic, passed QC.

Compound	cell-cell fusion (z-score)
CC[C@@H](CO)NC(=O)[C@@H]1C=C2c3cccc4[nH]cc(c34)C[C@H]2N(C)C1.O=C(O)/C=C\C(=O)O [Methylergonovine maleate]	inactive: 0.996
COc1cnc(NS(=O)(=O)c2ccc(N)cc2)nc1 [Sulfameter]	inactive: 3.8
C[C@]12CC[C@@H]3c4ccc(O)cc4C[C@@H](CCCCCCCCCS(=O)CCCC(F)(F)C(F)(F)F)[C@H]3[C@@H]1CC[C@H]2O (stereo partly drawn)	inactive: 2.11
C#CCN(C)[C@H](C)Cc1ccccc1.Cl [Selegiline hydrochloride]	inactive: 0.826
CC1(C)C(C(=O)O)N2C(=O)C[C@H]2S1(=O)=O (stereo partly drawn)	inactive: 0.819
Cl.Cl.Clc1ccc(Nc2nnc(Cc3ccncc3)c3ccccc23)cc1 [Vatalanib (PTK787) 2HCl]	inactive: 0.344
Cl.Cl.Clc1ccc(Nc2nnc(Cc3ccncc3)c3ccccc23)cc1 [Vatalanib dihydrochloride (PTK787)]	inactive: 1.09
CC(=O)c1c(C)c2cnc(Nc3ccc(N4CCNCC4)cn3)nc2n(C2CCCC2)c1=O.Cl [Palbociclib hydrochloride]	inactive: 0.278
CC(N)C12CC3CC(CC(C3)C1)C2.Cl (stereo not drawn) [Rimantadine hydrochloride]	inactive: 1.91
NC1(Cc2ccc(Cl)cc2)CCN(c2ncnc3[nH]ccc23)CC1	inactive: -0.983
Brc1c(Br)c(Br)c2[nH]cnc2c1Br	inactive: 1.39
CCc1cccc2c3c([nH]c12)C(CC)(CC(=O)O)OCC3 (stereo not drawn)	inactive: 3.32
CCc1cccc2c3c([nH]c12)C(CC)(CC(=O)O)OCC3 (stereo not drawn) [Etodolac]	inactive: 2.99
OCc1ccccc1O[C@@H]1O[C@H](CO)[C@@H](O)[C@H](O)[C@H]1O	inactive: -0.123
CC(C)=CCCC1(C)C=Cc2c(O)c3c(c(CC=C(C)C)c2O1)OC12C(CC4CC1C(C)(C)OC2(C/C=C(/C)C(=O)O)C4O)C3=O (stereo not drawn)	inactive: 2.26
CNC(=O)c1cnn(-c2nc(N)c3ncn([C@@H]4O[C@H](CO)[C@@H](O)[C@H]4O)c3n2)c1 [Regadenoson]	inactive: 1.42
COc1ccc(-c2coc3cc(O)cc(O)c3c2=O)cc1	inactive: 1.5
C[C@@H]1CCO[C@H]2Cn3cc(C(=O)NCc4ccc(F)cc4F)c(=O)c(O)c3C(=O)N12 [Dolutegravir]	inactive: 1.89
O=C1NC(c2cccc([N+](=O)[O-])c2)=CCN1c1ccccc1O [Icilin]	inactive: 2.98
N#Cc1cc2nc([O][Na])c([O][Na])nc2cc1[N+](=O)[O-] [CNQX disodium]	inactive: 3.48
c1ccc(CN(CC2=NCCN2)c2ccccc2)cc1	inactive: 1.03
CN(C)[C@@H]1C(O)=C(C(N)=O)C(=O)[C@@]2(O)C(O)=C3C(=O)c4c(O)ccc(Cl)c4[C@@H](O)[C@H]3C[C@@H]12.Cl	inactive: 0.552
Cc1ccc(-c2cc(C(F)(F)F)nn2-c2ccc(S(N)(=O)=O)cc2)cc1	inactive: 2.36

Quoted from the listing.
cell-cell fusion (z-score) with N#Cc1cc2nc([O][Na])c([O][Na])nc2cc1[N+](=O)[O-] [CNQX disodium] reads inactive: 3.48
cell-cell fusion (z-score) with CC(=O)c1c(C)c2cnc(Nc3ccc(N4CCNCC4)cn3)nc2n(C2CCCC2)c1=O.Cl [Palbociclib hydrochloride] reads inactive: 0.278
cell-cell fusion (z-score) with COc1ccc(-c2coc3cc(O)cc(O)c3c2=O)cc1 reads inactive: 1.5
cell-cell fusion (z-score) with Cl.Cl.Clc1ccc(Nc2nnc(Cc3ccncc3)c3ccccc23)cc1 [Vatalanib dihydrochloride (PTK787)] reads inactive: 1.09
cell-cell fusion (z-score) with Cl.Cl.Clc1ccc(Nc2nnc(Cc3ccncc3)c3ccccc23)cc1 [Vatalanib (PTK787) 2HCl] reads inactive: 0.344

Following part

Compound	cell-cell fusion (z-score)
Cc1ccc(-c2cc(C(F)(F)F)nn2-c2ccc(S(N)(=O)=O)cc2)cc1 [Celecoxib]	inactive: 1.48
O=C1CCc2ccc(OCCCCN3CCN(c4cccc(Cl)c4Cl)CC3)cc2N1 [Aripiprazole]	inactive: 3.82
Cc1cc(C(=O)NNCc2ccccc2)no1 [Isocarboxazid]	inactive: 2.2
C[C@]12CC[C@H]3c4ccc(O)cc4CC[C@H]3[C@@H]1CC[C@H]2O [Estradiol]	inactive: 1.96
O=C(Nc1ccc(OC(F)(F)F)cc1)c1sccc1NCc1ccnc2ccccc12	inactive: 1.75
O=c1[nH]c2ccccc2c2ccccc12 [6(5H)-Phenanthridinone]	inactive: -0.105
CC(C)[C@H](N)C(=O)OCCOCn1cnc2c(=O)[nH]c(N)nc21.Cl	inactive: 2.35
CCOc1ncc(S(=O)(=O)N2CCN(CC)CC2)cc1-c1nc(=O)c2nn(CCOC)c(CC)c2[nH]1.O=S(=O)(O)c1ccccc1 [Gisadenafil besylate salt]	inactive: 0.751
CCOc1ncc(S(=O)(=O)N2CCN(CC)CC2)cc1-c1nc(=O)c2nn(CCOC)c(CC)c2[nH]1.O=S(=O)(O)c1ccccc1 [Gisadenafil]	inactive: 2.47
O=c1c(O)c(-c2cc(O)c(O)c(O)c2)oc2cc(O)cc(O)c12	inactive: 2.05
O=c1c(O)c(-c2cc(O)c(O)c(O)c2)oc2cc(O)cc(O)c12 [Myricetin]	inactive: 2.68
Cc1cccc(C)c1OCC(=O)N[C@@H](Cc1ccccc1)[C@@H](O)C[C@H](Cc1ccccc1)NC(=O)[C@H](C(C)C)N1CCCNC1=O [Lopinavir]	active: -3.21
C[C@@H]1CC[C@@]2(NC1)O[C@H]1C[C@H]3C4CC=C5C[C@@H](O)CC[C@]5(C)C4CC[C@]3(C)C1[C@@H]2C (stereo partly drawn)	inactive: 2.24
CC(=O)OCC(=O)[C@@]1(OC(C)=O)[C@@H](C)CC2C3C[C@H](F)C4=CC(=O)C=C[C@]4(C)[C@@]3(F)[C@@H](O)C[C@@]21C (stereo partly drawn)	inactive: 2.48
Oc1ccnc(S)n1	inactive: -1.46
CC(=O)O[C@H]1CC[C@@]2(C)C(CC[C@]3(C)C2C(=O)C=C2[C@@H]4C[C@@](C)(C(=O)O)CC[C@]4(C)CC[C@]23C)C1(C)C (stereo partly drawn)	inactive: 3.57
Cc1cc(=O)oc2cc(O)c(O)cc12	inactive: 1.21
C=CC(=O)Nc1cccc(Nc2nc(Nc3ccc(Oc4ccnc(C(=O)NC)c4)cc3)ncc2F)c1	inactive: -2.56
Nc1c(CC(=O)[O-])cccc1C(=O)c1ccc(Br)cc1.Nc1c(CC(=O)[O-])cccc1C(=O)c1ccc(Br)cc1.O.O.O.[Na+].[Na+] [Bromfenac sodium]	inactive: 2.93
O=C(c1ccc(/C=C/c2n[nH]c3ccccc23)cc1)N1CCNCC1	inactive: -0.616
O=C1CCc2cc(OCCCCc3nnnn3C3CCCCC3)ccc2N1 [Cilostazol]	inactive: 2.67
CCC(C)[C@H]1O[C@]2(C=C[C@@H]1C)C[C@@H]1C[C@@H](C/C=C(\C)[C@@H](OC3C[C@H](OC)C(O[C@H]4C[C@H](OC)[C@@H](O)[C@H](C)O4)[C@H](C)O3)[C@@H](C)/C=C/C=C3\CO[C@@H]4[C@H](O)C(C)=C[C@@H](C(=O)O1)[C@]34O)O2 (stereo partly drawn) [ABAMECTIN (avermectin B1a shown)]	inactive: -2.11
COc1cc(O)c2c(=O)cc(-c3ccc(O)cc3)oc2c1	inactive: 1.91

Compound	cell-cell fusion (z-score)
COc1cccc(OC)c1OCCNCC1COc2ccccc2O1.Cl (stereo not drawn) [WB-4101 hydrochloride]	inactive: 0.499
CCN(CC)CCCC(C)Nc1ccnc2cc(Cl)ccc12.O=P(O)(O)O.O=P(O)(O)O (stereo not drawn) [Chloroquine diphosphate]	inactive: 0.645
Clc1ccc(COC(Cn2ccnc2)c2ccc(Cl)cc2Cl)cc1 (stereo not drawn) [Econazole]	inactive: 1.78
O=C(NC[C@H](O)CO)c1ccncc1Nc1ccc(I)cc1F	inactive: 1.2
COc1ccc(-c2cc(=O)c3c(OC)c(OC)c(OC)cc3o2)cc1OC	inactive: 2.11
Cc1cc(O)c2c(c1)C(=O)c1cccc(O)c1C2=O	inactive: 1.81
O=C(NCc1ccccc1)OCCO	inactive: 1.7
C[C@H](Cc1cc2c(c(C(N)=O)c1)N(CCCO)CC2)NCCOc1ccccc1OCC(F)(F)F [Silodosin]	inactive: 2.48
Cl.N[C@@H]1C[C@H]1c1ccccc1 [Tranylcypromine (2-PCPA) hydrochloride]	inactive: 2.06
CCCN1CCC[C@@H]2Cc3n[nH]cc3C[C@H]21.Cl [(-)-Quinpirole hydrochloride]	inactive: 1.48
CC(=O)O[C@H]1Cc2ccccc2N(C(N)=O)c2ccccc21	active: -4.1
CC(=O)[C@@]1(O)CC[C@H]2[C@@H]3CCC4=CC(=O)CC[C@]4(C)[C@H]3CC[C@@]21C [Hydroxyprogesterone]	inactive: 3.69
Cn1cnc2c1c(=O)[nH]c(=O)n2C [Theobromine]	inactive: 1.88
CC(=O)NC(CS)C(=O)O (stereo not drawn)	inactive: -0.0779
Br.NC1CCc2cc(O)c(O)cc2C1 (stereo not drawn) [6,7-ADTN hydrobromide]	active: -3.54
COc1ccc2c(c1)OC[C@@H](Cc1ccc(OC)c(OC)c1)[C@@H]2O	inactive: 2.34
COc1cc2ncnc(Nc3ccc(F)c(Cl)c3)c2cc1NC(=O)/C=C/CN1CCCCC1 [Dacomitinib]	inactive: -1.21
CCN(CC)CCNC(=O)c1cc(Br)c(N)cc1OC	inactive: 3.12
COc1ccc(C(=O)N2CCCC2=O)cc1 [Aniracetam]	inactive: 3.22
Cc1cc2c(C(C)C)c(O)c(O)c(C=O)c2c(O)c1-c1c(C)cc2c(C(C)C)c(O)c(O)c(C=O)c2c1O	active: -3.86
COC(=O)c1c(OC)cc2c(c1C)Oc1c(Cl)c(O)c(Cl)c(C)c1C(=O)O2	inactive: 2.01
C#Cc1cccc(Nc2ncnc3cc(OCCOC)c(OCCOC)cc23)c1 [Erlotinib]	inactive: 0.969
